Experimental data from paper PMC7819943, “Rice protein-binding microarrays: a tool to detect cis-acting elements near promoter regions in rice”.
The other results are listed elsewhere or left out.

Chains of the proteins cited; added tags and fusions are not shown.
UniProt Q0JBA9, entry or part of it: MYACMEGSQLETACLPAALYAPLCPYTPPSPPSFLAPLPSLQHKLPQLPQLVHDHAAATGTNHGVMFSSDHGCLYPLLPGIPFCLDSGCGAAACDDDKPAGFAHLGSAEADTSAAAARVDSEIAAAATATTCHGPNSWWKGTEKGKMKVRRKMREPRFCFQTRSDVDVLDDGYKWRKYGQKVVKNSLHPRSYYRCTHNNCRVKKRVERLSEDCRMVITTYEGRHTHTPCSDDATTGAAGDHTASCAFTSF

Biological target: OsWRKY34 (Oryza sativa, UniProt Q0JBA9 1-250)
Test: protein-binding microarray (RPBM); PBS, 2% BSA, 51.3 ng/ul salmon testes DNA, 50 uM zinc acetate, 200 nM TF, 25 C, 1 h; high values mean tight binding
Settings: protein: recombinant; tags: N-terminal polyhistidine and DsRed monomer fusion (pET32a); label: CyDye5-dUTP incorporated in the synthesized complementary strand; 3' TTTTT single-stranded linker to array surface; dsDNA, one strand shown
Method in brief: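 A custom Agilent array was converted to double-stranded form by primer extension with Cy5-dUTP and blocked with 2% BSA. Protein at 200 nM in PBS with 2% BSA, salmon testes DNA and 50 µM zinc acetate was applied for 1 h at 25 °C, followed by washing. The proteins were polyhistidine–DsRed N-terminal fusions of transcription factors, expressed in E. coli BL21-CodonPlus and Ni–NTA-purified. The binding signal is per-feature fluorescence intensity (arbitrary units) from an Axon 4000B scanner.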

Sequence	binding signal
TCCATGGTTCACACTTCACACCTGGGCTGCCTGTTCATCACGGAGTCACCTAGTGCAG	9320 fluorescence intensity (a.u.)
AACTTTCAACTTTTCTATCACATCAAAACTTTCATACACACGGAGTCACCTAGTGCAG	8450 fluorescence intensity (a.u.)
CCTCCACCATATCACACAGCAGCTCACTTGTCTCGCTTCCCGGAGTCACCTAGTGCAG	11100 fluorescence intensity (a.u.)
ATAAACTTTCAGCTTTCGATCTGATCCATCGGTTCCTTAGCGGAGTCACCTAGTGCAG	9750 fluorescence intensity (a.u.)
GGGGAGGAGGAGGAGGAGGGTAGGGATGGGGAAGAGGAGTCGGAGTCACCTAGTGCAG	8020 fluorescence intensity (a.u.)
CTTTGGTCCTCGCCCGCATGCCGCTGTCGCCACCGCTGTGCGGAGTCACCTAGTGCAG	11200 fluorescence intensity (a.u.)
TCTGTAATCACATCAGTCCTTTCTGTCGCGTAGTACGCCTCGGAGTCACCTAGTGCAG	8050 fluorescence intensity (a.u.)
TCATATTATCTATCCATTACTTCCGTTGTGTCTCATCCCTCGGAGTCACCTAGTGCAG	9780 fluorescence intensity (a.u.)
TTCACATCCTGAGTTCCTGACCAATTTCATTCACTCACACCGGAGTCACCTAGTGCAG	9630 fluorescence intensity (a.u.)
TTATGTTTTGCTGTTGTGAATGGAATATTGCTTGCATGATCGGAGTCACCTAGTGCAG	9520 fluorescence intensity (a.u.)
TTTCGCCTCGTCGATTCGTCGAACACCTCGCGAGCTTCCTCGGAGTCACCTAGTGCAG	8280 fluorescence intensity (a.u.)
CTAGTATGTCTGCGTGTGCCTGCCGTGCATTCGAATTTTTCGGAGTCACCTAGTGCAG	9750 fluorescence intensity (a.u.)
CTATACTATTAAACTTGCTCTCAACTCTACCCGTGCAGTCCGGAGTCACCTAGTGCAG	8070 fluorescence intensity (a.u.)
CGGAGGCGGCGCCTGAGGAGGGGCTTGGGGCGGAGGCCGACGGAGTCACCTAGTGCAG	10400 fluorescence intensity (a.u.)
GCTGTTTAACCCGTCGGCTCGCCGGCGCTCCCATCCATCCCGGAGTCACCTAGTGCAG	8240 fluorescence intensity (a.u.)
GGCGCTTTATTCAATTGGTCCGCTCTCGGTCTCCTGCACGCGGAGTCACCTAGTGCAG	8270 fluorescence intensity (a.u.)
TAACAACATTAGCCGCACACATATTACACCGTTGAATCAGCGGAGTCACCTAGTGCAG	8360 fluorescence intensity (a.u.)
TTTTTGGTTCTCGTTCATTTTTGTGCTGTGGTAAGAAGTCCGGAGTCACCTAGTGCAG	8190 fluorescence intensity (a.u.)
GACTCGTGCGCCGCCTACTTTCGCCAATCGCCATGGTGCACGGAGTCACCTAGTGCAG	8270 fluorescence intensity (a.u.)
CTCCTCCTCCGATCCTGTGTGTGCATGCGTCTCCGTGCACCGGAGTCACCTAGTGCAG	9840 fluorescence intensity (a.u.)
CAAACTTCAGTCCTTTTCCATCACATCAATCTATCATTCACGGAGTCACCTAGTGCAG	8320 fluorescence intensity (a.u.)
TCGGACTTCTTTTTTTGGTTTTTTTCTCATCGTTTCTTTTCGGAGTCACCTAGTGCAG	9370 fluorescence intensity (a.u.)
CTGTATACATCGCCCGTGTCTTGTGTGTTTCCTGTCTCGCCGGAGTCACCTAGTGCAG	9750 fluorescence intensity (a.u.)
TCCACCTACCGCTTGTTCCCCTAATTGATCTCTCCCCATGCGGAGTCACCTAGTGCAG	8210 fluorescence intensity (a.u.)
TCTCGCGCCTACTCTCTCTCTCTCGCGCGCGCGCCGTCCTCGGAGTCACCTAGTGCAG	9020 fluorescence intensity (a.u.)
CGGATTTGTTCTCACGTGGATATGGTGCAGCGCTGCACACCGGAGTCACCTAGTGCAG	8970 fluorescence intensity (a.u.)
CGACACGGTCTCCAAAACACAATTTTGACTTCTTATTTCTCGGAGTCACCTAGTGCAG	8790 fluorescence intensity (a.u.)

Quoted from above for reference:
Sequence	binding signal
CTTTGGTCCTCGCCCGCATGCCGCTGTCGCCACCGCTGTGCGGAGTCACCTAGTGCAG	11200 fluorescence intensity (a.u.)
TCTGTAATCACATCAGTCCTTTCTGTCGCGTAGTACGCCTCGGAGTCACCTAGTGCAG	8050 fluorescence intensity (a.u.)

Further records.

Sequence	binding signal
TCGTGTCCACCATTTTGATCCAGGCTATACATATTGTTTTCGGAGTCACCTAGTGCAG	12100 fluorescence intensity (a.u.)
TTTTCACCCACCATCCACCACCTGCCAATCTACCATACATCGGAGTCACCTAGTGCAG	10600 fluorescence intensity (a.u.)
ATTTTTCTTTTTATATATTCCCATGCATTTATTTTATATTCGGAGTCACCTAGTGCAG	11400 fluorescence intensity (a.u.)
TTATCACACATTTAACCCATTGTTTTCTAATATTTACAATCGGAGTCACCTAGTGCAG	9980 fluorescence intensity (a.u.)
ATTCTTATTTTTTAGCATTGTCCATATTTATATATGTGTTCGGAGTCACCTAGTGCAG	8940 fluorescence intensity (a.u.)
TGCATACGTACGTGAAATAACGTTATCCATGCTTAGCTTACGGAGTCACCTAGTGCAG	10200 fluorescence intensity (a.u.)
ACTGCCGCACCACGTCGCACAGCGCCGCCACATCTTTCTCCGGAGTCACCTAGTGCAG	8070 fluorescence intensity (a.u.)
CCTCCTCGGGCACTCCTCCTACCACCGTCACCACCTCGCACGGAGTCACCTAGTGCAG	8570 fluorescence intensity (a.u.)
TTGGGTATGTTTGGATCATTATATTAGTCCCTGGTAGAAGCGGAGTCACCTAGTGCAG	9120 fluorescence intensity (a.u.)
CGCTCACTTGCTCCTCTCGCTCTCTCTCTCCTCGAGTCTCCGGAGTCACCTAGTGCAG	8860 fluorescence intensity (a.u.)
GCGGGGTTGGAGGAGGAGGAGGTGGTGGTGGTGGTGGTGGCGGAGTCACCTAGTGCAG	15300 fluorescence intensity (a.u.)
TGACTTTTTATCATATGTTTGACCGTTCGTCTTATTCAAACGGAGTCACCTAGTGCAG	10900 fluorescence intensity (a.u.)
CTTTTTTTTTTCTTTCATATTTGTATCGTTTTGGTAGGGGCGGAGTCACCTAGTGCAG	12800 fluorescence intensity (a.u.)
CCCTCTCTCTATTTAAGCAAGCACATTCTCCTCTTCTTCTCGGAGTCACCTAGTGCAG	8240 fluorescence intensity (a.u.)
GACAGTTCTAAGACCCATCTCTAAGGTATTACCATTGCCCCGGAGTCACCTAGTGCAG	8030 fluorescence intensity (a.u.)
AGTTGTGGGCCATTCTTACCGTCACTTTGTCCCAAATTTCCGGAGTCACCTAGTGCAG	9300 fluorescence intensity (a.u.)
CTTTTTGACTGTGTAATTCCCTTGCTGTTTGTATAACATCCGGAGTCACCTAGTGCAG	9730 fluorescence intensity (a.u.)
CCTGCTATGATTTATGGACAAGATACATTGCGTTCTCACTCGGAGTCACCTAGTGCAG	9290 fluorescence intensity (a.u.)
ATGTTCTCCACGGAGCTGTCTGGTTCTGTTTGCTTCCTATCGGAGTCACCTAGTGCAG	9900 fluorescence intensity (a.u.)
GGTTTTTTTCCTGTGGTTCAATCAAACTGTTATTTCTGTACGGAGTCACCTAGTGCAG	9480 fluorescence intensity (a.u.)
TCTAATATGAGCTCTTTGTTGATACACATTATTCAGAGACCGGAGTCACCTAGTGCAG	8350 fluorescence intensity (a.u.)
TCTTCGTCGTCGTGGTTGGCGTCCTCGTGTCCGCCCGTTGCGGAGTCACCTAGTGCAG	12600 fluorescence intensity (a.u.)
GGAGAGCTCTGCTGCTTGGGGAGGGGAGGCGGAGGCGATGCGGAGTCACCTAGTGCAG	10600 fluorescence intensity (a.u.)
GGTGTTTGGTTTATGAGCAGGAGTGTGATTTGAGCTCTCACGGAGTCACCTAGTGCAG	8060 fluorescence intensity (a.u.)
AGTGGCAGGGGTGTGGGGATTGCCGGCTTGCCGCGGAGGACGGAGTCACCTAGTGCAG	11900 fluorescence intensity (a.u.)
ACCCCGTCGCCGCCGCCATCAATGAATCCAGACGCAAACGCGGAGTCACCTAGTGCAG	9160 fluorescence intensity (a.u.)
CATGCTCCACGTCCTTATGTCTCTCCAGTTTTACTGTATCCGGAGTCACCTAGTGCAG	9180 fluorescence intensity (a.u.)

3 records picked at random from those above:
Sequence	binding signal
CCTGCTATGATTTATGGACAAGATACATTGCGTTCTCACTCGGAGTCACCTAGTGCAG	9290 fluorescence intensity (a.u.)
CTTTTTGACTGTGTAATTCCCTTGCTGTTTGTATAACATCCGGAGTCACCTAGTGCAG	9730 fluorescence intensity (a.u.)
CTTTTTTTTTTCTTTCATATTTGTATCGTTTTGGTAGGGGCGGAGTCACCTAGTGCAG	12800 fluorescence intensity (a.u.)
